PubChem BioAssay AID1259308 – NCATS – 2017

Purpose: 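Genes whose loss raises luciferase production in HEK293 cells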 (primary screen)
System: human HEK293 embryonic kidney cells stably expressing firefly luciferase (HEK-CMV-Luc2-Hygro)
Reagents: single siRNA against human genes, 0.8 pmol siRNA per well
Timing: 72 h
Measured: 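Reporter luminescence and viable-cell signal on separate replicate plates, given as percent of non-targeting control and median/MAD z-scores, plus per-cell luciferase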
Scale: total luciferase, z-score: higher = more reporter protein produced
Hit rule: 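An siRNA counts as active if its total luciferase robust z-score exceeds 3; genes with two or more such siRNAs out of three were retested with fresh siRNAs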
Meaning of the calls: active = raised luciferase; inactive = no rise
Shown is a random part of about 59,000 reagents. About 1,510 of all reagents (2.6%) were called active. 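Calls use total luciferase alone and ignore viability, so some active siRNAs may act by altering cell number.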 A number with no mark means an inactive call. Not all columns of the deposit are shown. No sequences are given here.

Silencing of ARNT [SID160720156] resulted in: total luciferase, z-score 1.73. ARNT [SID160720167] showed total luciferase, z-score 2.81. ARNT [SID160720177] scored total luciferase, z-score 0.353. For ELFN1 [SID160766794], the entry reads total luciferase, z-score -0.695. Against ELFN1 [SID160766795], the values are total luciferase, z-score 0.287. ELFN1 [SID160766796] gave total luciferase, z-score 1.05.

For SCNN1A [SID160716419], the entry reads total luciferase, z-score -0.325. For SCNN1A [SID160716420] the deposit lists total luciferase, z-score -0.984. SCNN1A [SID160716421] scored total luciferase, z-score 2.15. Knock-down of APOL3 [SID160750613] resulted in: total luciferase, z-score 1.21. APOL3 [SID160750614] gave total luciferase, z-score -1.49. Knock-down of APOL3 [SID160750615] resulted in: total luciferase, z-score -0.533.

3 entries from above, set out differently.
gene | PubChem SID | total luciferase, z-score
ARNT | SID160720177 | 0.353
ELFN1 | SID160766794 | -0.695
ELFN1 | SID160766795 | 0.287

More reagents follow:
NOP53 [SID160739467] scored total luciferase, z-score -0.266. NOP53 [SID160739468] scored total luciferase, z-score -1.39. Knock-down of NOP53 [SID160739469] gave: total luciferase, z-score -2.02. GNG4 [SID160772204] showed total luciferase, z-score -0.0351. GNG4 [SID160772209] showed total luciferase, z-score -1.41. GNG4 [SID160772220] scored total luciferase, z-score -0.682.

Knock-down of USP8 [SID160721475] resulted in: total luciferase, z-score -0.125. Silencing of USP8 [SID160721476] came out at: total luciferase, z-score 0.308. Knock-down of USP8 [SID160721477] resulted in: total luciferase, z-score 0.331.
